Construct, isoform or probe ends are uncertain for at least one entry. Where cells or extracts were used, other partners may take part. For some of these results: No signal at the amounts used counts as a negative. For some of these results: At least one verdict rests on a figure or table, not on a statement of the authors.

Chains of the proteins cited; added tags and fusions are not shown. A change or cut given only in a name is not applied to a line headed by its entry. Chains listed by the source or under a name are the forms on record and can include a tag or linker.
UniProt P15379: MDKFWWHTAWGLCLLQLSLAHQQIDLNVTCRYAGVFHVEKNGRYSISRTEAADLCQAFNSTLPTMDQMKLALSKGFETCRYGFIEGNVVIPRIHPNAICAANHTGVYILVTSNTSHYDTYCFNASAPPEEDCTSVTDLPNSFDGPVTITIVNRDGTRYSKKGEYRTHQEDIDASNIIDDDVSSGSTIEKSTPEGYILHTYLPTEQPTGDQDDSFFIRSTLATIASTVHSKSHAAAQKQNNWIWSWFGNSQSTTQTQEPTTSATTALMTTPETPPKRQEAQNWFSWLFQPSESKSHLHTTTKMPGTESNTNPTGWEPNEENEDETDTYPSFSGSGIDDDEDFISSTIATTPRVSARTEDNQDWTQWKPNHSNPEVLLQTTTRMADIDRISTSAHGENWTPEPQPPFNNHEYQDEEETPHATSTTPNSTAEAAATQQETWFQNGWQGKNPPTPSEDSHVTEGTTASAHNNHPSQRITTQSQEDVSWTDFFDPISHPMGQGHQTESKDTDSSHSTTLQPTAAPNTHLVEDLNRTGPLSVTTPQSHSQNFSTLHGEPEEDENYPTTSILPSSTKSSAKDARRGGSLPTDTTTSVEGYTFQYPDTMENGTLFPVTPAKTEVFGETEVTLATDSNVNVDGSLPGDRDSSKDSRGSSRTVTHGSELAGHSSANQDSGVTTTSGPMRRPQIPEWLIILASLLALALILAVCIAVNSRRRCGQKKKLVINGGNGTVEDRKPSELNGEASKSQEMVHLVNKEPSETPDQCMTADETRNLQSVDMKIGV
CD44 (predominantly standard isoform CD44s) on human TNBC cells (Homo sapiens (Cis-Pt-R, MDA-MB-231, BT-549 cells)), one chain, as listed by the source: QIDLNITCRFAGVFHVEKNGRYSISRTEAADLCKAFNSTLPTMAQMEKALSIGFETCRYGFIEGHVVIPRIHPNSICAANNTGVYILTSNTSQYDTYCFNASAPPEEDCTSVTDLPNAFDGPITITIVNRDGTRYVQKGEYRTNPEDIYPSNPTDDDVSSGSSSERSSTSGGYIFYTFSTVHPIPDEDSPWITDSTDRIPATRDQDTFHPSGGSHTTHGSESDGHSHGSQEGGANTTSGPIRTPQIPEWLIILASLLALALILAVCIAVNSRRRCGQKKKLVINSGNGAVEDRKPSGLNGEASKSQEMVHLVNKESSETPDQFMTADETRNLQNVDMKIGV

Data set [1] relates to CD44 (predominantly standard isoform CD44s) on human TNBC cells (Homo sapiens (Cis-Pt-R, MDA-MB-231, BT-549 cells)). In words: flow cytometry cell binding. As to conditions: MDA-MB-231 cells, 150 nM aptamer; 2'-fluoro pyrimidines (2'F-Py) in the entire sequence; Flow cytometry: 150 nM Alexa 647-sTN58, serum-free medium, 0.1 mg/mL yeast tRNA, 0.1 mg/mL salmon sperm DNA, 10 min RT, after 30-fold excess unlabeled SCR; protein on the cell surface; label: 5'-biotin (pull-down) or Alexa 647 (cell binding).

Data set [2] shares this test system. In words: aptamer pull-down and LC-MS/MS. As to conditions: 400 nM biotin-sTN58, Cis-Pt-R membrane proteins precleared with biotin-SCR; 2'-fluoro pyrimidines (2'F-Py) in the entire sequence; pull-down: 400 nM in DPBS with protease inhibitors, 30 min RT; pH not stated; protein on the cell surface; label: 5'-biotin (pull-down) or Alexa 647 (cell binding).
Data set [3] shares this test system. In words: confocal colocalization with CD44 antibody. As to conditions: 2 uM aptamer, overlap coefficient 0.74, 2'-fluoro pyrimidines (2'F-Py) in the entire sequence, confocal: 2 uM in serum-free RPMI-1640, 5 min RT, protein on the cell surface, label: 5'-biotin (pull-down) or Alexa 647 (cell binding).
For data set [4] the test system is unchanged. In words: flow cytometry cell binding with siRNA knockdown. To be noted: 150 nM aptamer, binding falls with CD44 knockdown (Kd curve only in Fig. S2), 2'-fluoro pyrimidines (2'F-Py) in the entire sequence, Flow cytometry: 150 nM Alexa 647-sTN58, serum-free medium, 0.1 mg/mL yeast tRNA, 0.1 mg/mL salmon sperm DNA, 10 min RT, after 30-fold excess unlabeled SCR, protein on the cell surface, label: 5'-biotin (pull-down) or Alexa 647 (cell binding).

Data set [5] concerns the target CD44 on murine 4T1 cells (UniProt P15379). In words: flow cytometry and confocal colocalization with CD44 antibody. To be noted: overlap coefficient 0.76, 2'-fluoro pyrimidines (2'F-Py) in the entire sequence, Flow cytometry: 150 nM Alexa 647-sTN58, serum-free medium, 0.1 mg/mL yeast tRNA, 0.1 mg/mL salmon sperm DNA, 10 min RT, after 30-fold excess unlabeled SCR, protein on the cell surface, label: 5'-biotin (pull-down) or Alexa 647 (cell binding).

For data set [6], the system named is CD44 (predominantly standard isoform CD44s) on human TNBC cells (Homo sapiens (Cis-Pt-R, MDA-MB-231, BT-549 cells)). In words: confocal microscopy. As to conditions: Cis-Pt-R cells, 2 uM aptamer, undetectable signal; 2'-fluoro pyrimidines (2'F-Py); confocal: 2 uM in serum-free RPMI-1640, 5 min RT; protein on the cell …; label: 5'-biotin (pull-down) or Alexa 647 (cell binding).

Data set [7] has as its target CD44 on murine 4T1 cells (UniProt P15379). In words: confocal microscopy. To be noted: 4T1 cells, 2 uM aptamer; 2'-fluoro pyrimidines (2'F-Py); confocal: 2 uM in serum-free RPMI-1640, 5 min RT; protein on the cell surface; label: 5'-biotin (pull-down) or Alexa 647 (cell binding).

“GGACAUAUGAUGCAACGUUGUGGUCCCGUUUGCACUUUGUUUACG [sTN58]”: the binding result in data set [1], in data set [2], in data set [3], in data set [4] and in data set [5] was “binds” each time.

In the case of “UUCGUACCGGGUAGGUUGGCUUGCACAUAGAACGUGUCA [SCR]”, the binding result in data set [6] and in data set [7] was “no binding” each time.

(Values after publication PMC12059597.)
